Laboratory results: PMC10590975
Results are given in words; binding and its absence hold for the method and conditions named. In cells and extracts the contact can be indirect. Some binding calls cover weakened binding; strength is not graded here. Blank lines part the entries; values can stand above or below the molecule they belong to.

The chains behind the UniProt entries cited, without tags or fusion partners.
UniProt Q9NYD6: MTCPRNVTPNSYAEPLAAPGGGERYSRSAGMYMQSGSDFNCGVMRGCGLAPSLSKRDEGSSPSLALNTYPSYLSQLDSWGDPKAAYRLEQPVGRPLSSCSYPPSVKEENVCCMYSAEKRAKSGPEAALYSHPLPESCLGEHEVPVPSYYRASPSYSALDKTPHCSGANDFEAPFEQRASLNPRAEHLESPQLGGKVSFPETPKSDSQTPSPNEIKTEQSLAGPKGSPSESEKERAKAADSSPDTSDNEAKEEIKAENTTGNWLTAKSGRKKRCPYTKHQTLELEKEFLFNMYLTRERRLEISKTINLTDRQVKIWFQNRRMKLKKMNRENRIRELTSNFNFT

Assays:
[1] = biological target: T1, Forkhead Box A3 (FOXA3) (human (endogenous in ESCC cell lines)) (UniProt P55318); test: co-IP; total protein (500 ug) from ESCC cells in RIPA lysis buffer; incubated with anti-HOXC10, anti-FOXA3 or IgG overnight at 4 C; Protein G/A agarose beads 2 h; washed with PBS three times; western blot for FOXA3 and HOXC10
T1 sequence: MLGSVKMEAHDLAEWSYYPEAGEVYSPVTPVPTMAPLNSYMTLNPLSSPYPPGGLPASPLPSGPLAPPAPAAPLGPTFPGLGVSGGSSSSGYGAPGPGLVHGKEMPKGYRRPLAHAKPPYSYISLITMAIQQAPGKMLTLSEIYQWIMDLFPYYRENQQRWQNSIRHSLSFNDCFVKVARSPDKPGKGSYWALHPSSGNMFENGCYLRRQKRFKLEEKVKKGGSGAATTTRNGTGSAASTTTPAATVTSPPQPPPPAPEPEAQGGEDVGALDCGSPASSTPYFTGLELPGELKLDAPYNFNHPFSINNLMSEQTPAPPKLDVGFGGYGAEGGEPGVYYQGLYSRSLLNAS

[2] = biological target: HomeoboxC10 (HOXC10) (human (endogenous in ESCC cell lines)) (UniProt Q9NYD6); test: as above

binding [1]: binds
Molecule: HomeoboxC10 (HOXC10) (from UniProt Q9NYD6 1-342)

binding [2]: binds
B1: Forkhead Box A3 (FOXA3) (protein, UniProt P55318 1-350)
chain: T1 sequence
